One molecule from patent US20150307573A1, “CYLINDRINS AS ETIOLOGIC AGENTS OF AMYLOID DISEASES” (The Regents of the University of California, priority 2012, published 2015) can be followed below.

These are yes or no findings as the source states them, for the method shown. Some entries that bind do so weakly or less than the wild type.

This test concerns the target Abeta(30-42)-Tandem3-GG. Nature of the test: SDS-PAGE and SEC; self-association of identical chains.

Consider GAIIGLMVGGVVIAGPAIIGLMVGGVVIAGPAIIGLMVGGVVIA [Abeta(30-42)-Tandem3-GG], for which the binding entry is reported as “binds”.
